{"source": "patent US20260364098A1", "about": "“HETEROARYL COMPOUNDS AS ENDOCANNABINOID SYSTEM MODULATORS AND USES THEREOF” (Northeastern University, priority 2023, published 2026)", "key": {"human CB1 (hCB1)": {"molecular_target": "human CB1 (hCB1) (Homo sapiens, UniProt P21554)", "test": "Competition binding assay, [3H]CP55,940 displacement, hCB1 HEK293 membranes", "conditions": "up to 100 nM; [3H]CP55,940 0.7 nM; 37 °C, 60 min", "description": "(§1) Cell membrane preparation. Fresh or frozen HEK293 cell pellets (2×10^8 cells expressing human CB1 (hCB1) or rat CB1 (rCB1)) were resuspended in 5 ml of TME [25 mM Tris, 5 mM MgCl2, 1 mM EDTA pH 7.4] supplemented with 0.5% protease inhibitor cocktail (Sigma, St Louis, MO, USA). Cells were lysed under nitrogen cavitation for 30 min at 1000 psi on ice, centrifuged at 1000 g for 10 min, and the supernatant was collected. The pellet was washed three times with 10 ml of TME containing protease inhibitors and the combined supernatant was centrifuged at 100,000 g for 45 min at 4 °C. The resultant membrane pellet was used immediately or stored at −80 °C. Protein concentration for the resulting membrane fraction was obtained using Bradford Assay.\nCompetition Binding Assay. Competition binding assays were performed in a 96-well format. Assays were carried out using [3H] CP55,940 and Tris binding buffer (50 mM Tris-HCl, 50 mM Tris-base, 0.1% BSA, pH 7.4), up to a total assay volume of 500 μL. The concentration of [^3H]CP55,940 used in our displacement assays was 0.7 nM. […] Radioactivity was quantified by liquid scintillation spectrometry. […] Ki values were determined by fitting the data to non-linear regression curve using Graph Pad Prism software."}, "CB1": {"tested_on": "CB1", "test": "Saturation binding assay with [3H]CP55940, membranes from rat brain or HEK293 overexpressing hCB1", "set-up": "species or system rat or human", "conditions": "[3H]CP55940 1.58 to 50 nM, 30 °C, 1 h", "description": "as §1\nSaturation Binding Assay. Saturation-binding assays were performed in a 96-well format. Membrane preparations either from rat brain or HEK293 cells overexpressing hCB1 were resuspended in TME-bovine serum albumin (BSA; TME containing 0.1% BSA) and 25 ug of protein was added to each assay well. [^3H]CP55940 was diluted in TME-BSA to yield ligand concentrations ranging from 1.58 to 50 nM. […] Bound radioactivity was quantitated in a Packard Top Count Scintillation Counter. Nonspecific binding was subtracted from the total bound radioactivity to calculate specific binding of [^3H] […]"}, "hCB1 receptors": {"molecular_target": "hCB1 receptors (Homo sapiens, UniProt P21554)", "test": "CB1 cAMP assay (inhibition of forskolin-stimulated cAMP accumulation)", "format": "cell-based", "conditions": "read-out: EC50 of 2-AG + Compound (1 μM); 2-AG in presence of 1 μM compound; forskolin 2 μM; HEK293 and/or CHO hCB1"}}, "note": "The match of structure and compound is tentative."}
{"molecule": "Nc1ccc(-c2[nH]c3ccccc3c2C(C[N+](=O)[O-])c2ccc(B(O)O)cc2)cc1", "note": "(stereo not drawn)", "values": [{"measurement": "competition with CP-55,940", "setting": "human CB1 (hCB1)", "value": "do not compete with CP-55,940"}, {"measurement": "increase in the Bmax of CP-55,940", "setting": "CB1", "value": 45, "unit": "%"}, {"measurement": "EC50", "setting": "hCB1 receptors", "value": 0.0664, "unit": "µM"}]}
